Laboratory results taken from publication doi:10.1101/748194.
These are yes or no findings as the source states them, for the method shown. Some entries that bind do so weakly or less than the wild type.

Target: T1, Pch1 (S. pombe) (UniProt O74627)
T1 sequence: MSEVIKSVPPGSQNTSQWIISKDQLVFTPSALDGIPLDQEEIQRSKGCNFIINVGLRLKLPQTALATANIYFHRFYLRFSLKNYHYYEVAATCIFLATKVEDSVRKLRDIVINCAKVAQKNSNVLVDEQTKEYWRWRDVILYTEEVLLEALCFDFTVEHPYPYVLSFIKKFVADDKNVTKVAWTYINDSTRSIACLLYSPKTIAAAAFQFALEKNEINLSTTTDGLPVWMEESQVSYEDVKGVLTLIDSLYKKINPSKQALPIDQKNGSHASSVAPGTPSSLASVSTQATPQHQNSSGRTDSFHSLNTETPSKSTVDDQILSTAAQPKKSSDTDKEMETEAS
Assay: co-purification

- binding: binds
B1: Cdk9 (enzyme, UniProt Q96WV9 1-591)
chain: MKRSSSVSVEDEKSARRKLDVVPKLHFVGCSHLTDYHLMEKLGEGTFGEVYKSQRRKDGKVYALKRILMHTEKEGFPITAIREIKILKSIKHENIIPLSDMTVVRADKKHRRRGSIYMVTPYMDHDLSGLLENPSVKFTEPQIKCYMKQLFAGTKYLHDQLILHRDLKAANLLIDNHGILKIADFGLARVITEESYANKNPGLPPPNRREYTGCVVTRWYRSPELLLGERRYTTAIDMWSVGCIMAEMYKGRPILQGSSDLDQLDKIFRLCGSPTQATMPNWEKLPGCEGVRSFPSHPRTLETAFFTFGKEMTSLCGAILTLNPDERLSASMALEHEYFTTPPYPANPSELQSYSASHEYDKRRKREQRDANSHAFEQTANGKRQFRFMTRGPSDPWYGIRRPNYNSQPQYQRGSYNREGGNMDRSRNVNYQPKRQQNFKPLTSDLPQKNSEFSETNAMNQTSNHSHADGQRYYRPEQDRSQRLRNPSDYGRQGRQSSQSQQPAWNVSSRYQNNSKVQTTSRASENADTNKTQHNIKYIDSYVPEYSIARQSANQKTNEQHPSSTSLHQQSTSDLKSPSFHENSNVDDTPK
